Taken from: PubChem BioAssay AID1224826 (NIAID, 2016)

- Purpose: 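Genes that change LPS-induced Tnf promoter activity in mouse macrophages when knocked down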 (primary screen)
- System: RAW264.7 G9 macrophages from mouse bearing reporters for p65 (GFP) and the Tnf promoter (mCherry)
- Reagents: siRNA pool against mouse genes, 100 nM
- Timing: 16 h of LPS stimulation, after 2 days of siRNA transfection
- Challenge: bacterial lipopolysaccharide (Salmonella minnesota R595), 10 ng/ml
- Read-out: 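Imaged Tnf reporter mCherry in nuclei, minus background, normalised per plate to the median and expressed as robust z-scores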
- Direction: Tnf reporter robust z-score: higher = stronger Tnf promoter reporter signal after LPS
- Call rule: 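a well counts as active at a score of -1.3 or below (Tlr4 knock-down control median) or above 3 (raised signal); controls and wells holding fewer than 50 cells are excluded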
- Calls: active = Tnf reporter clearly lowered or raised; inactive = no clear change in Tnf reporter
The whole screen tested about 17,000 reagents; shown is a part drawn at random. About 1,110 of all reagents (6.6%) were called active. 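Active means lowered or raised reporter signal; replicate intensities are raw and not normalised per plate.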 Unmarked entries are inactive. Not all columns of the deposit are shown.

Ap1ar [SID315477692] — Tnf reporter robust z-score = 0.41; fewer than 50 cells in well = enough cells in well
Foxred1 (FAD-dependent oxidoreductase domain containing 1) [SID315479232] — Tnf reporter robust z-score = -0.54; fewer than 50 cells in well = enough cells in well
Gadd45b (growth arrest and DNA-damage-inducible 45 beta) [SID315468051] — Tnf reporter robust z-score = -0.33; fewer than 50 cells in well = enough cells in well
Copg2 (coatomer protein complex, subunit gamma 2) [SID315471167] — Tnf reporter robust z-score = 0.38; fewer than 50 cells in well = enough cells in well
Snrpb2 (U2 small nuclear ribonucleoprotein B) [SID315469365] — Tnf reporter robust z-score = -0.24; fewer than 50 cells in well = enough cells in well
Or6b9 (olfactory receptor family 6 subfamily B member 9) [SID315479095] — Tnf reporter robust z-score = -0.72; fewer than 50 cells in well = enough cells in well
Brd7 (bromodomain containing 7) [SID315470511] — Tnf reporter robust z-score = 1.35; fewer than 50 cells in well = enough cells in well
Med9 (mediator complex subunit 9) [SID315477396] — fewer than 50 cells in well = fewer than 50 cells per well; well left out of calls
Mrgpra5 (MAS-related GPR, member A5) [SID315481909] — Tnf reporter robust z-score = 0.2; fewer than 50 cells in well = enough cells in well
Aldh1a2 (aldehyde dehydrogenase family 1, subfamily A2) [SID315468889] — Tnf reporter robust z-score = -1.54 (active); fewer than 50 cells in well = enough cells in well
Snap91 (synaptosomal-associated protein 91) [SID315469354] — Tnf reporter robust z-score = -1.22; fewer than 50 cells in well = enough cells in well
Adamts12 (ADAM metallopeptidase with thrombospondin type 1 motif 12) [SID315479434] — Tnf reporter robust z-score = -0.38; fewer than 50 cells in well = enough cells in well
Adprhl1 (ADP-ribosylhydrolase like 1) [SID315479136] — Tnf reporter robust z-score = 0.66; fewer than 50 cells in well = enough cells in well
Smc2 (structural maintenance of chromosomes 2) [SID315466693] — fewer than 50 cells in well = fewer than 50 cells per well; well left out of calls
Or6z5 (olfactory receptor family 6 subfamily Z member 5) [SID315480540] — Tnf reporter robust z-score = 2.41; fewer than 50 cells in well = enough cells in well
Scn4a (sodium channel, voltage-gated, type IV, alpha) [SID315476944] — Tnf reporter robust z-score = 0.23; fewer than 50 cells in well = enough cells in well
Vps16 (VSP16 CORVET/HOPS core subunit) [SID315475715] — Tnf reporter robust z-score = 2.99; fewer than 50 cells in well = enough cells in well
Lgals6 (lectin, galactose binding, soluble 6) [SID315467743] — Tnf reporter robust z-score = -0.32; fewer than 50 cells in well = enough cells in well
Tsx (testis specific X-linked gene) [SID315469860] — Tnf reporter robust z-score = -0.09; fewer than 50 cells in well = enough cells in well
Zfp711 (zinc finger protein 711) [SID315479826] — Tnf reporter robust z-score = -0.96; fewer than 50 cells in well = enough cells in well
Dcakd (dephospho-CoA kinase domain containing) [SID315473404] — Tnf reporter robust z-score = 0.26; fewer than 50 cells in well = enough cells in well

Look-ups from the list:
Value for Snrpb2 (U2 small nuclear ribonucleoprotein B) [SID315469365] under “fewer than 50 cells in well”: enough cells in well
Vps16 (VSP16 CORVET/HOPS core subunit) [SID315475715], fewer than 50 cells in well: enough cells in well
Entry for Ap1ar [SID315477692] under “fewer than 50 cells in well”: enough cells in well
